# Source: PubChem BioAssay AID504467 (National Center for Advancing Translational Sciences (NCATS), 2011)
# The whole screen tested about 330,000 compounds, of which about 7,700 (2.3%) were called active. The inconclusive results got no clear call from the source; some entries with a clear call stand among them for comparison. Calls come from the whole dose curve; as a rule, active = well fitted inhibition curve with a large enough effect; inconclusive = small, poorly fitted or top-dose-only effect, or effect the other way; inactive = flat fitted curve, though single readings scatter. A potency beside an inconclusive call is a rough fit, not a confirmed value.
# Experiment: qHTS screen for small molecules that inhibit ELG1-dependent DNA repair in human embryonic kidney (HEK293T) cells expressing luciferase-tagged ELG1; note: nearly all actives have a fitted effect of over 55% in size
# Details: HEK293T ELG1-luciferase reporter, luminescence, 16 h, DNA damage induced by 5-fluorouridine; series mostly up to 46.1 µM
# Procedure, shortened: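 Reporter activity after DNA damage by 5-fluorouridine is monitored. Compound-treated cells incubate 16 hr at 37 °C, then ONE-Glo is added for 30 min before luminescence reading.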
# Potency is the fitted concentration of half-maximal effect.
row,SMILES,Potency
1,Cc1ccc(NC(=S)NCC(C)C)cc1,"inconclusive: 20.6 µM [activator, single point]"
2,Clc1ccc(CSc2cc3c(nn2)-c2ccccc2CC3)cc1,"inconclusive: 29.1 µM [activator, single point]"
3,Cc1cc(-c2nsc(=O)o2)c(S(C)(=O)=O)s1,inactive
4,COc1ccc(OC)c(-c2csc(NC(=O)CN3C(=O)C4CCCCC4C3=O)n2)c1 (stereo not given),inactive
5,CC1Cc2cc(S(=O)(=O)N3CCN(c4ccccc4)CC3)ccc2N1C(=O)C1CC1 (stereo not given),"inconclusive: 7.3 µM [inhibitor, partial curve]"
6,CC(C)Nc1nc(NC(C)C)nc(Oc2ccc(OCc3ccccc3)nn2)n1,"inconclusive: 14.6 µM [activator, partial curve]"
7,N#Cc1ccc2ccn(CC(=O)NCc3ccco3)c2c1,inactive
8,S=C(NCCNC(=S)Nc1ccccc1Cl)Nc1ccccc1Cl,"inconclusive: 20.6 µM [inhibitor, partial curve]"
9,COc1ccc(-c2nn(-c3ccccc3)cc2/C=C/C(=O)OCC(=O)Nc2ccc(C#N)cc2)cc1,"inconclusive: 8.2 µM [inhibitor, partial curve]"
10,CCOc1ccc(-c2nnc(NC(=O)C3CCCC3)o2)cc1,"inconclusive: 29.1 µM [activator, partial curve, poor fit]"
11,CCCC1S/C(=N/N=C/c2ccc(OC)cc2)N(Cc2ccc(OC)cc2)C1=O (stereo not given),inactive
12,COc1ccccc1NC(=O)CSc1nnc(Cc2cccn2C)n1CCc1ccccc1,"inconclusive: 20.6 µM [inhibitor, partial curve, poor fit]"
13,CCCCNC(=O)COC(=O)c1c2c(nc3ccccc13)CCC2,"inconclusive: 25.9 µM [inhibitor, single point]"
14,Cc1nc(CS(=O)(=O)c2ccc(Cl)cc2)cc(Sc2ccc(Cl)cc2)n1,active: 20.6 µM
15,CCN(CC)C(=O)c1cccc(NC(=O)c2cc(C3CC3)nc3c2cnn3C(C)C)c1,"inconclusive: 18.3 µM [inhibitor, partial curve, poor fit]"
16,Cc1ccc(NC(=O)CN2CCCN(S(=O)(=O)c3ccc(Br)s3)CC2)cc1,"inconclusive: 20.6 µM [inhibitor, single point]"
17,CN(C)S(=O)(=O)c1cccc(NC(=S)NC2CCCCC2)c1,inactive
18,O=C(N/N=C1\CC(c2ccccc2)Oc2ccccc21)c1ccc(O)cc1 (stereo not given),active: 18.3 µM
19,CCOC(=O)CNc1nc(Cl)nc(N2CCCCC2)n1,inactive
20,CCC(=O)Nc1cc(C(=O)OCc2ccc(C(=O)Oc3ccccc3)cc2)ccc1C,"inconclusive: 25.9 µM [activator, partial curve, poor fit]"
21,C=CCN1C(=O)/C(=C/c2ccc(OC(C)=O)c(OCC)c2[N+](=O)[O-])SC1=S,"inconclusive: 5.8 µM [activator, single point]"
22,COc1cccc(CN(C)C(=O)CNC(=O)c2ccc3c(c2)OCO3)c1OC,inactive
23,CN(C)C(=O)CNC(=O)CN1C(=O)NC2(CCCc3sccc32)C1=O (stereo not given),inactive

# Shown with bars between the fields: entries from further up
row | SMILES | Potency
10 | CCOc1ccc(-c2nnc(NC(=O)C3CCCC3)o2)cc1 | inconclusive: 29.1 µM [activator, partial curve, poor fit]
11 | CCCC1S/C(=N/N=C/c2ccc(OC)cc2)N(Cc2ccc(OC)cc2)C1=O (stereo not given) | inactive
19 | CCOC(=O)CNc1nc(Cl)nc(N2CCCCC2)n1 | inactive

# Remaining list, next part:

row,SMILES,Potency
1,O=C1NC(Cc2ccccc2)c2nc3cc(Cl)ccc3c(=O)n2-c2cc(Cl)ccc21 (stereo not given),inactive
2,O=C1NCCCC1C(=O)N1CCN(C(=O)C2CCCNC2=O)CC1 (stereo not given),"inconclusive: 15.8 µM [inhibitor, single point]"
3,CCc1cccc(C)c1NC(=O)CCNC(=O)c1cccc(C)c1,inactive
4,CN1CCCN(C(=O)c2ccc(Br)s2)CC1,"inconclusive: 29.1 µM [activator, partial curve, poor fit]"
5,O=C(NCc1ccccc1Cl)c1ccc(CS(=O)Cc2ccc(Cl)cc2)o1 (stereo not given),"inconclusive: 18.3 µM [inhibitor, single point]"
6,O=C(NCC1CCCO1)c1cc2c([nH]c3ccccc32)c(-c2cccc(Cl)c2)n1 (stereo not given),"inconclusive: 8.2 µM [inhibitor, single point]"
7,CCOC(=O)c1ccc(NC(=O)c2c(C)[nH]c(C(=O)OCC)c2C)cc1,inactive
8,COc1ccc(N2CC(C)Cn3c2nc2c3c(=O)n(Cc3ccc(C)cc3)c(=O)n2C)c(OC)c1 (stereo not given),"inconclusive: 29.1 µM [inhibitor, single point]"
9,O=C(O)CCCNC(=O)/C(=C\c1ccc(Cl)cc1)NC(=O)c1ccc(Br)cc1,"inconclusive: 0.146 µM [inhibitor, single point]"
10,Cc1ccc(Cn2nc(-c3ccccc3)nc2-c2ccccc2)cc1,"inconclusive: 18.4 µM [activator, partial curve]"
11,O=C(CCNC(=O)c1ccc(Br)cc1)OCc1ccccc1Cl,inactive
12,COc1ccccc1N(C)S(=O)(=O)c1ccc(Cl)c(C(=O)NCc2ccco2)c1,active: 20.6 µM
13,O=C(C1=C[C@H](c2csc3ccccc23)C[C@H](OCc2ccc(CO)cc2)O1)N1CCOCC1,"inconclusive: 23.1 µM [inhibitor, single point]"
14,COc1cccc(C(=O)N2CCN(c3ccc(N4CCOCC4)nn3)CC2)c1,"inconclusive: 0.206 µM [activator, partial curve, poor fit]"
15,COc1ccc(C(=O)NC(=S)Nc2ccccc2N2CCN(S(C)(=O)=O)CC2)cc1OC,active: 14.6 µM
16,O=S(=O)(NCC(c1cccnc1)N1CCN(Cc2ccccc2)CC1)c1cc(F)ccc1F (stereo not given),inactive
17,c1nc(Nc2ccc(N3CCOCC3)cc2)c2ccsc2n1,"inconclusive: 9.2 µM [activator, partial curve]"
18,COCCCN1C(=O)C(=O)/C(=C(/O)c2ccc(S(=O)(=O)N3CCOCC3)cc2)C1c1ccc(C(C)C)cc1 (stereo not given),"inconclusive: 18.3 µM [activator, partial curve, poor fit]"
19,CC(C)(C)c1ccc(C(=O)C2CCCN(C(=O)CN3CCCC3=O)C2)cc1 (stereo not given),inactive
20,C=CCn1c(COc2ccccc2)nc2ccccc21,"inconclusive: 20.6 µM [activator, partial curve]"
21,CCOC(=O)N/N=C(C)/C=C/c1ccco1,"inconclusive: 20.6 µM [activator, single point]"
22,O=C(O)CSc1nnnn1-c1ccccc1,"inconclusive: 20.6 µM [activator, partial curve, poor fit]"
